Assay results as given in the supplement of paper PMC10849652.
The other results are listed elsewhere or left out.

Chains of the proteins cited; added tags and fusions are not shown. Lines headed by an entry give the natural chain unless they say otherwise; changes in a name come on top.
UniProt Q6ZRQ5: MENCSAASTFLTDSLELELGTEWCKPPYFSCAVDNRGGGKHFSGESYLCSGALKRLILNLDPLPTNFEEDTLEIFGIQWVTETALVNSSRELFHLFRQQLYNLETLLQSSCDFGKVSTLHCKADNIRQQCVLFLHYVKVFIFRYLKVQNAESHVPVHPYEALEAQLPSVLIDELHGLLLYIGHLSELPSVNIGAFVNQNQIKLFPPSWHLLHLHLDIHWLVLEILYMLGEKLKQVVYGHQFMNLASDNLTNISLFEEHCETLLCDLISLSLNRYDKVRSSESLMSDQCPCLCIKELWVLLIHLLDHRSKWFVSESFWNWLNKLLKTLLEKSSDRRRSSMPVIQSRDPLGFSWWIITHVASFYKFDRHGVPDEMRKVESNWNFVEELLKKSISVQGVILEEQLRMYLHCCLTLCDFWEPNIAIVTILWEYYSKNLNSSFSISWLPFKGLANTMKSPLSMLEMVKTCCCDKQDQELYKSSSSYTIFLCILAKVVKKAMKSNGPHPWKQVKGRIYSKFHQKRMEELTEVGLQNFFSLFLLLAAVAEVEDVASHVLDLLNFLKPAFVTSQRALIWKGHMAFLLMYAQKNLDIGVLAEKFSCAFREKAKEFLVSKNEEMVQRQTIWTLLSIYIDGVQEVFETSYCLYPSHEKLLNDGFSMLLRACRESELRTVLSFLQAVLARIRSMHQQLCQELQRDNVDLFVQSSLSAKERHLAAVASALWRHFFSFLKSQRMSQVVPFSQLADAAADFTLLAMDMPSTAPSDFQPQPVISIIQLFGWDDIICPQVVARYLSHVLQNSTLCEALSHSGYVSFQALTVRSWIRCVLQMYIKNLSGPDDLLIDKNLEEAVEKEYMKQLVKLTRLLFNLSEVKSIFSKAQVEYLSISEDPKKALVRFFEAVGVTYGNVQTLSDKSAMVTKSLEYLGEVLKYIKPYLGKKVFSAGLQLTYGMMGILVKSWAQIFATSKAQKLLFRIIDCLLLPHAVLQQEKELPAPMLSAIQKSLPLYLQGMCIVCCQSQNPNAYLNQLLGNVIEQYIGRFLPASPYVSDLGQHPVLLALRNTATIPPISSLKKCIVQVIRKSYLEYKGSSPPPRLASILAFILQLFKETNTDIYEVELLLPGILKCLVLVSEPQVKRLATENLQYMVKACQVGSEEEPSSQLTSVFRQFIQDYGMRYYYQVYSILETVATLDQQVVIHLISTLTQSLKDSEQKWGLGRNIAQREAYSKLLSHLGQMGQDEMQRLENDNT
UniProt Q9UBG0: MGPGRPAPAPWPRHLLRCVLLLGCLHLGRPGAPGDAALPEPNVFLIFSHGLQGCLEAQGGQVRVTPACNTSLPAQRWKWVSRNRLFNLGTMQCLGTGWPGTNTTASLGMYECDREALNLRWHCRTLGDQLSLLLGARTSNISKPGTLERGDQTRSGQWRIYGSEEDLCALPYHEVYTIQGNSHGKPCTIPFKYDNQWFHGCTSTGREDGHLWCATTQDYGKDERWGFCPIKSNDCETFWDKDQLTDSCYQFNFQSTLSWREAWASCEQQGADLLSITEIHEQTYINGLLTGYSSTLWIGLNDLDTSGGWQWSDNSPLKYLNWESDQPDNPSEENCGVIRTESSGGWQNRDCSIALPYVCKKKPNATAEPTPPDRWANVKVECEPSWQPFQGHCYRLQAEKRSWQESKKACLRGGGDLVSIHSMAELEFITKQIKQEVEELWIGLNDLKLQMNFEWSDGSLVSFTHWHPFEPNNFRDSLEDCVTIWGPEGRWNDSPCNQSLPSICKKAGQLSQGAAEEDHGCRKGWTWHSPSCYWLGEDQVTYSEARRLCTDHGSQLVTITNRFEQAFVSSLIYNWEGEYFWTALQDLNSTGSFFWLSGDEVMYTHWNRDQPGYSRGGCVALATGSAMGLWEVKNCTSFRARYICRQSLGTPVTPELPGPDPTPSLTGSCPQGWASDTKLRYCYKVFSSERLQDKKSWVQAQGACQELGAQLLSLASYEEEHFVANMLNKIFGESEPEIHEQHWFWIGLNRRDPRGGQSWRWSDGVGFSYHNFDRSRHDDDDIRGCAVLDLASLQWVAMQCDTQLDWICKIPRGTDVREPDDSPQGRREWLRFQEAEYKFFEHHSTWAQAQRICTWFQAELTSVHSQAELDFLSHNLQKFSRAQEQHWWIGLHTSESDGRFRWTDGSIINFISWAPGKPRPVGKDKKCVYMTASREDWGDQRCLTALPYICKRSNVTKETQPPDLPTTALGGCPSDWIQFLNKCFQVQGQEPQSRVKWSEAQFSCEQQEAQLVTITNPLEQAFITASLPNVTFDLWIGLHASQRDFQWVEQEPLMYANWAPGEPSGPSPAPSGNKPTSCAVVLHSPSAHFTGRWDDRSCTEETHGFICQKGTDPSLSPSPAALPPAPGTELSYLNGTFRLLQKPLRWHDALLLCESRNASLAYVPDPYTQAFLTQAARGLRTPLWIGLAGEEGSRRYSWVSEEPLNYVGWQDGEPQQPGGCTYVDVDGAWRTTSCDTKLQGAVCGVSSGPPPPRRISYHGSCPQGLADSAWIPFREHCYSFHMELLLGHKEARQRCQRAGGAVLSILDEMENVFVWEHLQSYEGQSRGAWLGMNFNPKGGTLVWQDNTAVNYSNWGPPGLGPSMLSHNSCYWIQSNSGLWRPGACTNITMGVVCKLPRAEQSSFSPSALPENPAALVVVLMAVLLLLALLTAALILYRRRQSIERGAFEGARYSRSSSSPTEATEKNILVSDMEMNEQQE
UniProt P08473: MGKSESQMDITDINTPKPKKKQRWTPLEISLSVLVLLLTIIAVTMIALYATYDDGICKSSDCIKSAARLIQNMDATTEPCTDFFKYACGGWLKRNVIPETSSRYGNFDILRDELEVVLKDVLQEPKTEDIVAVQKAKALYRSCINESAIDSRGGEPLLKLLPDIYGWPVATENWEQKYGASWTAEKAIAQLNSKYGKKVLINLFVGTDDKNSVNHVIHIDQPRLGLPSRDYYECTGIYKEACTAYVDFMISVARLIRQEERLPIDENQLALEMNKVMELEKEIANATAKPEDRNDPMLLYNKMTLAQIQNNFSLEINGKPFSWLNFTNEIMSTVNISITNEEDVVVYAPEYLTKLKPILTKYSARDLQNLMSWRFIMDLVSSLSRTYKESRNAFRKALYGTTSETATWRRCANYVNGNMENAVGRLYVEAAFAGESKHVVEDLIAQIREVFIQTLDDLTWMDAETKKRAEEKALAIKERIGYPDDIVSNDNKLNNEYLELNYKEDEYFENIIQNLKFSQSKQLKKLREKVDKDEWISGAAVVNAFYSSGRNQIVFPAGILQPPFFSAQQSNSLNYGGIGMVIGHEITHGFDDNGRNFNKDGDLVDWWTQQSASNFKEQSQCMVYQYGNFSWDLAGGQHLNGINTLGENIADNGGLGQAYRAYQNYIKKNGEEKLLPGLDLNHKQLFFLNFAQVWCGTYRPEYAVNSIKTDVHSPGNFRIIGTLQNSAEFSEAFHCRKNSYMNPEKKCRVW
UniProt Q8TD10: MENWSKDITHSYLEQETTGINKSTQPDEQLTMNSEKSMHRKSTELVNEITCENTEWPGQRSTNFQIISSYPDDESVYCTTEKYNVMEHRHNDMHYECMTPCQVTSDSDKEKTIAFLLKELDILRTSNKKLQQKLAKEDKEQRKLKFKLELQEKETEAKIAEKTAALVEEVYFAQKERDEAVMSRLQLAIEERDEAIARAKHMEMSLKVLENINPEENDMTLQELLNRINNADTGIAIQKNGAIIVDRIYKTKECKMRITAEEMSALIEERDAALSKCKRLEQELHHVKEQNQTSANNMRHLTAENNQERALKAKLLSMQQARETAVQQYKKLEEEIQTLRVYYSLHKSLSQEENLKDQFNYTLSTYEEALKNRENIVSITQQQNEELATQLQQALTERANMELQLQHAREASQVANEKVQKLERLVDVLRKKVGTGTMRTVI
UniProt Q6NTE8: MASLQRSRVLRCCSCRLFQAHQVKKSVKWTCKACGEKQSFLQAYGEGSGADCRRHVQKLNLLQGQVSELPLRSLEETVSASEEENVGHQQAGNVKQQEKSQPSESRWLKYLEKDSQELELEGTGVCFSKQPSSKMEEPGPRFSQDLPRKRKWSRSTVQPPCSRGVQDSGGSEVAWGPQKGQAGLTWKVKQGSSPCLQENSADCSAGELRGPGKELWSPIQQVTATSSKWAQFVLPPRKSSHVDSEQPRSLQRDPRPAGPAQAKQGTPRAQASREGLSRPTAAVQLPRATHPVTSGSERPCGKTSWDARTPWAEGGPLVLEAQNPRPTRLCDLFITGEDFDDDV
UniProt Q7L4E1: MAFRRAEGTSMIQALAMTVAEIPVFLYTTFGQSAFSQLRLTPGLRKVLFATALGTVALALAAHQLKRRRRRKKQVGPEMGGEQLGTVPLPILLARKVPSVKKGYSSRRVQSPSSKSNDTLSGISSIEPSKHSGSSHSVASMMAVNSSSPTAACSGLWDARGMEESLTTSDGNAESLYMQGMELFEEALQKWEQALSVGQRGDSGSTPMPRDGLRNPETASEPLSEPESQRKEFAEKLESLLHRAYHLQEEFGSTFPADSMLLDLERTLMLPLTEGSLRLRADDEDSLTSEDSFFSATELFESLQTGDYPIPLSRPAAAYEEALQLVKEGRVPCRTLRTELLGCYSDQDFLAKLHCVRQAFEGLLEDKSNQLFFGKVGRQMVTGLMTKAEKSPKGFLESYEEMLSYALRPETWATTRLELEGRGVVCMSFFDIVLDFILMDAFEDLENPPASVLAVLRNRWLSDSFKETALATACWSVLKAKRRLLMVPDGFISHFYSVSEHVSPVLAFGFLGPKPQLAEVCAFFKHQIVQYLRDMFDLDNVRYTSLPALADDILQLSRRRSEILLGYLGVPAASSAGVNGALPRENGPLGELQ
UniProt Q29983, whole entry, looked up: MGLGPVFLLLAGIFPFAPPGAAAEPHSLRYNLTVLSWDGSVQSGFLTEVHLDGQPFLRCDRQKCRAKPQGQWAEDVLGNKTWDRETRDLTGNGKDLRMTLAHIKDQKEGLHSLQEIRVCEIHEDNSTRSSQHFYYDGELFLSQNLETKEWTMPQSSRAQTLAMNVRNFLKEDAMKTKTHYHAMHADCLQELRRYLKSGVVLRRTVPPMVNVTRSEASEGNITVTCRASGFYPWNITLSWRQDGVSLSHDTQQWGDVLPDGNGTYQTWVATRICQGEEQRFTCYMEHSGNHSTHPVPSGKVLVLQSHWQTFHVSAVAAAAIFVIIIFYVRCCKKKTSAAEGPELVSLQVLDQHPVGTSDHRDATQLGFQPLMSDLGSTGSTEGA
UniProt Q9HBH9: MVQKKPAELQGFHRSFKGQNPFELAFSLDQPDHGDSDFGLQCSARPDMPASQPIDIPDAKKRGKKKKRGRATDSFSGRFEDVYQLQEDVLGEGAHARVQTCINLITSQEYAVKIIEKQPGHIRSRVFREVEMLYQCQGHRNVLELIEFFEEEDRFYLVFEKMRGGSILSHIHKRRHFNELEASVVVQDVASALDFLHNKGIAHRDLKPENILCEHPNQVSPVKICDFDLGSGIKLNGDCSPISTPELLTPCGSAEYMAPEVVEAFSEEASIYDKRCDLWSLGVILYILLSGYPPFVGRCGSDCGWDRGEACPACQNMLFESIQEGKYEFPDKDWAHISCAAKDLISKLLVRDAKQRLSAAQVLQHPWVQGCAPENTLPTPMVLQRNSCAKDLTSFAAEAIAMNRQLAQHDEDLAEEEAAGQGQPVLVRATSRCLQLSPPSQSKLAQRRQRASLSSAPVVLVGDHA
UniProt Q9NPJ1: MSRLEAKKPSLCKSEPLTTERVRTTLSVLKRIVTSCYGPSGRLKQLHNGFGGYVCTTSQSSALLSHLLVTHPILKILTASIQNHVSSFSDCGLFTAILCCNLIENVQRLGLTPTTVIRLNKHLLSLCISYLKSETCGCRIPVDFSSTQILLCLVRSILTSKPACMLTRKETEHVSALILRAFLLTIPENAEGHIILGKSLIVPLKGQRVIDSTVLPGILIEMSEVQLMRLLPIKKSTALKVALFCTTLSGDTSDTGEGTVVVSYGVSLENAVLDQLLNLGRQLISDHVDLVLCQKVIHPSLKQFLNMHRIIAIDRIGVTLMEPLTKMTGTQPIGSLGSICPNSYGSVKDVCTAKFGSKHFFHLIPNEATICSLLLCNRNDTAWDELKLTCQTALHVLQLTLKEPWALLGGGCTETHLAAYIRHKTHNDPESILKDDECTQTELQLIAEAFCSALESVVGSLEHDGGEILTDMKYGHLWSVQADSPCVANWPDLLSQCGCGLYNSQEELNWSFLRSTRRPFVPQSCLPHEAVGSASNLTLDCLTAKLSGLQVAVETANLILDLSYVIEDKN
UniProt O96033: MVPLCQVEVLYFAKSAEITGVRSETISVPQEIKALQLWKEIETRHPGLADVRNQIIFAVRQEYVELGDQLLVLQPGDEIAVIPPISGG
UniProt Q96FF7: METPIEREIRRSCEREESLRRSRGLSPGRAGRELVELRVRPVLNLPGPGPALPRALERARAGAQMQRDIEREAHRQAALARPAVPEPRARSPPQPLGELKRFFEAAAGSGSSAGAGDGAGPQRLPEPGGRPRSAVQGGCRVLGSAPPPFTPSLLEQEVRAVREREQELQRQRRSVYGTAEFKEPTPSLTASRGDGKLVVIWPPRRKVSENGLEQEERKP

Experiments:
Test in all cases: log2 fold change, soluble protein after heating vs DMSO (PISA); higher = thermal stabilisation; K562 lysate, 10 uM; active = over 0.2 and 3.5 SD of the protein, either way, in both replicates (recomputed)
alvocidib = compound: CN1CC[C@H](c2c(O)cc(O)c3c(=O)cc(-c4ccccc4Cl)oc23)[C@H](O)C1 [alvocidib]
Procedure, shortened: (§1)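 K562 pellets were dounce-homogenised in PBS pH 7.4 containing 1 mM MgCl2, and the crude extract, at 1 mg/mL protein, was exposed to 10 μM compound for 30 min. Aliquots were heated for 3 min across 48°C-58°C, pooled, brought to 0.5% NP-40 at 4°C and spun at 21,000xg for 90 min, with the supernatant taken as soluble protein. TMTpro 16plex LC-MS/MS with equalised channel sums quantified that protein. Values are log-two fold changes in thermal stability relative to solvent controls, taken from duplicates.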

defactinib = compound: CNC(=O)c1ccc(Nc2ncc(C(F)(F)F)c(NCc3nccnc3N(C)S(C)(=O)=O)n2)cc1 [defactinib]
Procedure, shortened: as §1

[1] = compound: C[C@H](C1=CC=C(C=C1)C(=O)NC2=C3C=CNC3=NC=C2)N
Procedure, shortened: as §1

gandotinib = compound: Cc1cc(Nc2cc(CN3CCOCC3)c3nc(C)c(Cc4ccc(Cl)cc4F)n3n2)n[nH]1 [gandotinib]
Procedure, shortened: as §1

[2] = compound: Cc1cccc(CC(=O)N2CCc3c2ccc(-c2cn(C)c4ncnc(N)c24)c3F)n1
Procedure, shortened: as §1

Tubastatin A = compound: CN1CCc2c(c3ccccc3n2Cc2ccc(C(=O)NO)cc2)C1 [Tubastatin A]
Procedure, shortened: as §1

[3] = compound: CNC(=O)C1=CC=CC=C1NC2=NC(=NC=C2Cl)NC3=C(C=C(C=C3)N4CCOCC4)OC
Procedure, shortened: as §1

encorafenib = compound: COC(=O)N[C@@H](C)CNc1nccc(-c2cn(C(C)C)nc2-c2cc(Cl)cc(NS(C)(=O)=O)c2F)n1 [encorafenib]
Procedure, shortened: as §1

[4] = compound: COC(=O)[C@H](CCSC)NC(=O)C1=C(C=C(C=C1)NC[C@H](CS)N)C2=CC=CC=C2
Procedure, shortened: as §1

[5] = compound: COc1cc2nc(-c3cc(F)ccc3O)nc(N[C@@H]3CNC[C@H]3C(C)(C)O)c2cc1OC
Procedure, shortened: as §1

lapatinib = compound: CS(=O)(=O)CCNCc1ccc(-c2ccc3ncnc(Nc4ccc(OCc5cccc(F)c5)c(Cl)c4)c3c2)o1 [lapatinib]
Procedure, shortened: as §1

tozasertib = compound: Cc1cc(Nc2cc(N3CCN(C)CC3)nc(Sc3ccc(NC(=O)C4CC4)cc3)n2)n[nH]1 [tozasertib]
Procedure, shortened: as §1

[6] = compound: CNc1nc(-c2ccc3c(N)n[nH]c3c2)cc(N2C[C@@H](C(=O)NC3CCCCC3)CC[C@H]2C)n1
Procedure, shortened: as §1

crizotinib = compound: C[C@@H](Oc1cc(-c2cnn(C3CCNCC3)c2)cnc1N)c1c(Cl)ccc(F)c1Cl [crizotinib]
Procedure, shortened: as §1

duvelisib = compound: C[C@H](Nc1ncnc2nc[nH]c12)c1cc2cccc(Cl)c2c(=O)n1-c1ccccc1 [duvelisib]
Procedure, shortened: as §1

doramapimod = compound: Cc1ccc(-n2nc(C(C)(C)C)cc2NC(=O)Nc2ccc(OCCN3CCOCC3)c3ccccc23)cc1 [doramapimod]
Procedure, shortened: as §1

pictilisib = compound: CS(=O)(=O)N1CCN(Cc2cc3nc(-c4cccc5[nH]ncc45)nc(N4CCOCC4)c3s2)CC1 [pictilisib]
Procedure, shortened: as §1

bafetinib = compound: Cc1ccc(NC(=O)c2ccc(CN3CC[C@H](N(C)C)C3)c(C(F)(F)F)c2)cc1Nc1nccc(-c2cncnc2)n1 [bafetinib]
Procedure, shortened: as §1

alisertib = compound: COc1cc(Nc2ncc3c(n2)-c2ccc(Cl)cc2C(c2c(F)cccc2OC)=NC3)ccc1C(=O)O [alisertib]
Procedure, shortened: as §1

gefitinib = compound: COc1cc2ncnc(Nc3ccc(F)c(Cl)c3)c2cc1OCCCN1CCOCC1 [gefitinib]
Procedure, shortened: as §1

Measured: log2 fold change

MLF1 isoform 3 (UniProt P58340)
inactive: alvocidib -0.173 | defactinib 0.02 | [1] 0.11 | gandotinib -0.11 | [2] -0.049

MKKS (UniProt Q9HB66)
inactive: Tubastatin A 0.019 | [3] -0.028 | defactinib 0.149 | encorafenib 0.015 | [4] -0.028 | [5] 0.089 | lapatinib 0.135 | tozasertib 0.044

MIDEAS, A0A1C7CYX1
inactive: Tubastatin A -0.362 | [3] 0.035 | [6] -0.02 | [5] 0.031 | lapatinib 0.035 | crizotinib -0.088 | duvelisib -0.178 | doramapimod 0.077

MR1 (UniProt Q95460)
inactive: [3] 0.074 | defactinib 0.047 | [6] -0.016 | encorafenib -0.055 | [4] -0.047 | pictilisib 0.046 | duvelisib 0.089 | tozasertib -0.089 | bafetinib -0.047

MMS22L (UniProt Q6ZRQ5)
inactive: alvocidib 0.068 | [3] -0.011 | defactinib 0.06 | [6] -0.03 | encorafenib -0.007 | [4] 0.017 | alisertib -0.004 | [5] 0.055 | gefitinib 0.035 | lapatinib -0.101 | pictilisib -0.034 | crizotinib 0.113 | [1] 0.065 | duvelisib -0.106 | gandotinib -0.169 | tozasertib 0.087 | doramapimod -0.018 | bafetinib -0.152 | [2] -0.029

MRC2 (UniProt Q9UBG0)
inactive: alvocidib 0.04 | [3] -0.062 | [6] 0.05 | encorafenib 0.031 | [4] -0.301 | alisertib -0.075 | gefitinib 0.046 | crizotinib -0.3 | [1] -0.192 | duvelisib -0.49 | gandotinib 0.075 | tozasertib 0.063 | doramapimod 0.035 | [2] -0.184

MME (UniProt P08473)
inactive: alvocidib -0.01 | Tubastatin A 0.081 | [3] 0.048 | [6] 0.142 | alisertib -0.079 | [5] -0.018 | gefitinib 0.066 | lapatinib 0.025 | pictilisib -0.024 | crizotinib 0.037 | [1] 0.037 | duvelisib 0.066 | gandotinib -0.002 | doramapimod 0.002 | bafetinib 0.058 | [2] 0.048

MIPOL1 (UniProt Q8TD10)
inactive: alvocidib 0 | Tubastatin A -0.027 | [3] -0.025 | [6] 0.033 | encorafenib -0.049 | [4] 0.053 | [5] -0.005 | lapatinib -0.019 | pictilisib -0.084 | crizotinib -0.126 | [1] 0.184 | duvelisib 0.128 | gandotinib -0.001 | tozasertib -0.132 | doramapimod 0.409 | bafetinib -0.36 | [2] -0.034

MRPL22 (UniProt Q9NWU5)
inactive: alvocidib 0.018 | Tubastatin A -0.033 | [3] 0.036 | alisertib -0.003 | [5] -0.052 | gefitinib -0.051 | lapatinib -0.023 | crizotinib -0.047 | [1] -0.038 | gandotinib -0.018 | doramapimod 0.016 | [2] 0.05

MRNIP (UniProt Q6NTE8)
inactive: alvocidib 0.081 | Tubastatin A -0.021 | [3] 0.035 | [6] -0.116 | alisertib -0.019 | [5] -0.013 | gefitinib 0.047 | lapatinib 0.033 | pictilisib -0.152 | crizotinib -0.081 | [1] -0.087 | duvelisib 0.029 | gandotinib 0.005 | doramapimod 0.008 | bafetinib -0.029 | [2] -0.095

MINDY4 (UniProt Q4G0A6)
inactive: alvocidib -0.023 | Tubastatin A -0.153 | [6] 0.084 | alisertib -0.051 | gefitinib 0.007 | pictilisib 0.167 | [1] 0.143 | duvelisib -0.06 | gandotinib -0.071 | bafetinib -0.014 | [2] 0.035

MIGA2 (UniProt Q7L4E1)
inactive: Tubastatin A 0.06 | [3] 0.132 | [6] 0.004 | encorafenib 0.366 | [4] 0.149 | duvelisib 0.037 | tozasertib -0.335

MICA (UniProt Q29983)
inactive: alvocidib -0.117 | pictilisib -0.15 | [1] -0.336 | gandotinib 0 | bafetinib -0.012 | [2] 0.052

MGMT (UniProt P16455)
inactive: Tubastatin A 0.262 | [6] 0.121 | duvelisib -0.048

MRE11 (UniProt F8W7U8)
inactive: [5] 0.012 | lapatinib -0.04

MKNK2 (UniProt Q9HBH9)
inactive: Tubastatin A -0.011 | [3] 0.191 | defactinib -0.069 | [6] -0.059 | encorafenib 0.199 | [4] -0.167 | alisertib -0.322 | gefitinib -0.086 | duvelisib -0.016 | tozasertib -0.015

MKKS (UniProt Q9NPJ1)
inactive: alvocidib -0.044 | defactinib -0.032 | [6] 0.032 | encorafenib 0.126 | [4] -0.196 | pictilisib -0.011 | [1] -0.046 | duvelisib -0.058 | gandotinib 0.13 | tozasertib -0.239 | bafetinib 0.074 | [2] -0.193

MOCS2 (UniProt O96033)
inactive: Tubastatin A 0.104 | [6] -0.023 | [5] 0.009 | lapatinib 0.025 | crizotinib -0.065 | duvelisib 0.013 | doramapimod 0.012

Reprinted at random: 2 records from the list
MMS22L (UniProt Q6ZRQ5)
inactive: alvocidib 0.068 | [3] -0.011 | defactinib 0.06 | [6] -0.03 | encorafenib -0.007 | [4] 0.017 | alisertib -0.004 | [5] 0.055 | gefitinib 0.035 | lapatinib -0.101 | pictilisib -0.034 | crizotinib 0.113 | [1] 0.065 | duvelisib -0.106 | gandotinib -0.169 | tozasertib 0.087 | doramapimod -0.018 | bafetinib -0.152 | [2] -0.029

MKKS (UniProt Q9HB66)
inactive: Tubastatin A 0.019 | [3] -0.028 | defactinib 0.149 | encorafenib 0.015 | [4] -0.028 | [5] 0.089 | lapatinib 0.135 | tozasertib 0.044

Continuation:

MKRN3 (UniProt Q13064)
inactive: alvocidib 0.002 | Tubastatin A 0.059 | [3] 0.02 | defactinib -0.106 | [6] 0.08 | alisertib 0.117 | [5] 0.095 | gefitinib 0.023 | lapatinib -0.095 | pictilisib -0.111 | crizotinib -0.064 | [1] 0.015 | duvelisib -0.126 | gandotinib -0.006 | doramapimod -0.037 | bafetinib 0.019 | [2] -0.033

MISP3 (UniProt Q96FF7)
inactive: [6] 0.036 | alisertib -0.107 | [5] 0.14 | gefitinib 0.188 | lapatinib 0.04 | duvelisib 0.065
